Data: the supplement of paper PMC10849652
The other results are listed elsewhere or left out.

The chains behind the UniProt entries cited, without tags or fusion partners. Where a name states a change or a piece, a line headed by the entry shows the natural chain unless it says otherwise.
UniProt Q96AB3: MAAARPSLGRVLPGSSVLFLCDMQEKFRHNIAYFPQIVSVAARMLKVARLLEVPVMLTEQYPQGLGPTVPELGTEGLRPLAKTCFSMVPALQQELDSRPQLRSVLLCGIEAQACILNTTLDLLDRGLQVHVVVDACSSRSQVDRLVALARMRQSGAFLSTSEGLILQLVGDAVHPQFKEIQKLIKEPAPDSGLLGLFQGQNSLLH
UniProt Q9UI26: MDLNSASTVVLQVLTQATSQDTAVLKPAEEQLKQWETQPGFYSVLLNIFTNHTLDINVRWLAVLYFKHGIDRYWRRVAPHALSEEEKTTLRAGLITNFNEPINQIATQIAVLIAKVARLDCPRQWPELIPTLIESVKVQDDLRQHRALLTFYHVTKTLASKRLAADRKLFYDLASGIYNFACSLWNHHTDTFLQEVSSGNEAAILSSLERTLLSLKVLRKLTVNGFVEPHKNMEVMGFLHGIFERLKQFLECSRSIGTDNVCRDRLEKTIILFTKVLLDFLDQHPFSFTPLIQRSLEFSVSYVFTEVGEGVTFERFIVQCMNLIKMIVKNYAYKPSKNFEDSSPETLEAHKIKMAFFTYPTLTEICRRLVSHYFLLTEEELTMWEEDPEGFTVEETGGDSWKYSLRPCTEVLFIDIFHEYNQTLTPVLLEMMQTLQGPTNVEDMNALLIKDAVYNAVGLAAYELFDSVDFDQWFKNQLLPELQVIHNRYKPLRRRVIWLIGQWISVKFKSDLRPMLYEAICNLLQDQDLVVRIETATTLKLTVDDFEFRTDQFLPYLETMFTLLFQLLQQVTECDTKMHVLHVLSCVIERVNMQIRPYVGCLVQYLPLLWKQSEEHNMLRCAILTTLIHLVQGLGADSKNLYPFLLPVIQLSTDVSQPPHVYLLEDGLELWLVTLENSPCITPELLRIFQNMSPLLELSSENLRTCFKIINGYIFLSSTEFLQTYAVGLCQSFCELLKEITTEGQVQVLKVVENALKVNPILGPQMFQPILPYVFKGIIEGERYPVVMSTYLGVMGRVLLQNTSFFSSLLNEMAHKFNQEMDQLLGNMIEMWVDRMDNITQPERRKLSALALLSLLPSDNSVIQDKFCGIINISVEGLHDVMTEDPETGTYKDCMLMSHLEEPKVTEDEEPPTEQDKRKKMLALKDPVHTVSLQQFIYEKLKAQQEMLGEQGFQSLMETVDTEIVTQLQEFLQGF
UniProt Q9NPH2: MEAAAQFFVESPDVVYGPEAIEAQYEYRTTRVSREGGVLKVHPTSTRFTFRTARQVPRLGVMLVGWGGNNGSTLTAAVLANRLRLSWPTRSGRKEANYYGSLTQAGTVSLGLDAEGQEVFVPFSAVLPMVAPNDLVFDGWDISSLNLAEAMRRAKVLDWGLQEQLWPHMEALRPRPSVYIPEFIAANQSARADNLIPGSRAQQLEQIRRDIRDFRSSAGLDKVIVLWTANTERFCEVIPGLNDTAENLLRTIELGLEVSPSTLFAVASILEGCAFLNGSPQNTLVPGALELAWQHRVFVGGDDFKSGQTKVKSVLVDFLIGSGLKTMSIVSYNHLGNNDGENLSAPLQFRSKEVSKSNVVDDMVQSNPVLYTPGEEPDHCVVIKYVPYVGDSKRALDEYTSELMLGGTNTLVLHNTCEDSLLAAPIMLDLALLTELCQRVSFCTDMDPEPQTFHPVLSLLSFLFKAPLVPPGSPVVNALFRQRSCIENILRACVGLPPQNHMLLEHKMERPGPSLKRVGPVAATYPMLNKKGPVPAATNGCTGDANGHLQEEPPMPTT
UniProt Q9H1K1: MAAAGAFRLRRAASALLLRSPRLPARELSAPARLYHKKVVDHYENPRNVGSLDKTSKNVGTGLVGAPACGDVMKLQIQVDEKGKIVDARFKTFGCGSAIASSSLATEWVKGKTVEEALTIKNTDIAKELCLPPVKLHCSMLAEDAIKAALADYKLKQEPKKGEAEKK
UniProt Q8IY47: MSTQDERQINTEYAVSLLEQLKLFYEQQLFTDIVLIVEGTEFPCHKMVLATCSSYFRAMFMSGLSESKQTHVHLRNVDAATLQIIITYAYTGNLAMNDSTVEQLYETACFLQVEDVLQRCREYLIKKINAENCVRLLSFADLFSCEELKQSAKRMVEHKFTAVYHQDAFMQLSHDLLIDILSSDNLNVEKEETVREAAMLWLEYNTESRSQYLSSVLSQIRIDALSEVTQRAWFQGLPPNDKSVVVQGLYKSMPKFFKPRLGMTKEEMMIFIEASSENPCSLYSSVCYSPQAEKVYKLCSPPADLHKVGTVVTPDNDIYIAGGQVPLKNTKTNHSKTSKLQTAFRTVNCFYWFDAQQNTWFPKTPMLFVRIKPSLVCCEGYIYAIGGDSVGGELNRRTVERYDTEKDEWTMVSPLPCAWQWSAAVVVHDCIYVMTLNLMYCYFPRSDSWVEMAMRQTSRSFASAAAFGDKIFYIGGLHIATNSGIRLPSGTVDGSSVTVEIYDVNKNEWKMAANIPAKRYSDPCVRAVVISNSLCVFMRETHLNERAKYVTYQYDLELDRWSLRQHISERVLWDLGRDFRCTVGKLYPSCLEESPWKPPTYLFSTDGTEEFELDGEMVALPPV
UniProt Q7L273: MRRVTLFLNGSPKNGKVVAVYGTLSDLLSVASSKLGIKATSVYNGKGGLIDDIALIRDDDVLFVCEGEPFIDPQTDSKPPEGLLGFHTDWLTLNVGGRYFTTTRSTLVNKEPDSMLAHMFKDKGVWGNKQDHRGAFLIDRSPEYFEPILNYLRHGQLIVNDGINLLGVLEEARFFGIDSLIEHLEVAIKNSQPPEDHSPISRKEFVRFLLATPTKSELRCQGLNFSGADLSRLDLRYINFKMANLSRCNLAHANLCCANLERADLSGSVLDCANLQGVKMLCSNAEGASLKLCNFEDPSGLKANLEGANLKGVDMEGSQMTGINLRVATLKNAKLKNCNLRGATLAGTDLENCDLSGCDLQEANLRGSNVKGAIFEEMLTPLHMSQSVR
UniProt Q9H1B7, whole entry, looked up: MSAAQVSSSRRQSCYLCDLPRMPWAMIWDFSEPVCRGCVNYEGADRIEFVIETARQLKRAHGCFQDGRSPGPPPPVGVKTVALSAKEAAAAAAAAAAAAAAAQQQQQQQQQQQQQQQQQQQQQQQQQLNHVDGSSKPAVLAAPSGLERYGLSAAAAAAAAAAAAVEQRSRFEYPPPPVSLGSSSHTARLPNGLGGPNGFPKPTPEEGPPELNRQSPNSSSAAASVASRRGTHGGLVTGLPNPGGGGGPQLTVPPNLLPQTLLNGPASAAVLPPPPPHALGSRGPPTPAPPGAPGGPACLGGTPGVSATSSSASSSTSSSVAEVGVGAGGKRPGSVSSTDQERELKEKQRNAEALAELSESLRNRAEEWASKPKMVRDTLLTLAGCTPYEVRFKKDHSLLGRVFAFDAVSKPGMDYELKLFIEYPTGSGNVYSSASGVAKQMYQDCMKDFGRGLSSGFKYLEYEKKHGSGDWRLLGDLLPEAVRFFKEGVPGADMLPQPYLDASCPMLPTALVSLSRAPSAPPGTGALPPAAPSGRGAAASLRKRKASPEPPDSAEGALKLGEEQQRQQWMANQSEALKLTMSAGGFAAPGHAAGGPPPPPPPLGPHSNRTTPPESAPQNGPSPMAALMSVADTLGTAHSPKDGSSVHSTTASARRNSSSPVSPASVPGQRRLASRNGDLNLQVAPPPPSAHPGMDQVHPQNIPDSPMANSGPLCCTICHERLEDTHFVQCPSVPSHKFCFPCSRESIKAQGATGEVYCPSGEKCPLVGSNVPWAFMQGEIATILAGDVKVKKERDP
UniProt Q8IU81: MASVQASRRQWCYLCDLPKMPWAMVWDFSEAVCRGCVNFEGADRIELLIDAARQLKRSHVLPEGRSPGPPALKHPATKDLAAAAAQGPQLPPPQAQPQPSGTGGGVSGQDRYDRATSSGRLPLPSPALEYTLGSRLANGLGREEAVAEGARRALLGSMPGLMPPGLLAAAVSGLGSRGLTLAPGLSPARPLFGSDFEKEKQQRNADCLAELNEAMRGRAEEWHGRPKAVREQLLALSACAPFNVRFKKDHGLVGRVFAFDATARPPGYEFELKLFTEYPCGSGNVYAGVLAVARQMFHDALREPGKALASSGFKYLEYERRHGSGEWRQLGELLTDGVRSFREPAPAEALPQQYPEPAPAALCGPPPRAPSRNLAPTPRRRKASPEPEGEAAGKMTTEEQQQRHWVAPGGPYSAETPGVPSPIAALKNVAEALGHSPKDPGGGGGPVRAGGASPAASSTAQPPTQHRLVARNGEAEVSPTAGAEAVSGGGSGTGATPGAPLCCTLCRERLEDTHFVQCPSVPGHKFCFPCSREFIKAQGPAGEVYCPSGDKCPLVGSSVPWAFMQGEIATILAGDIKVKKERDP
UniProt O95251, whole entry, looked up: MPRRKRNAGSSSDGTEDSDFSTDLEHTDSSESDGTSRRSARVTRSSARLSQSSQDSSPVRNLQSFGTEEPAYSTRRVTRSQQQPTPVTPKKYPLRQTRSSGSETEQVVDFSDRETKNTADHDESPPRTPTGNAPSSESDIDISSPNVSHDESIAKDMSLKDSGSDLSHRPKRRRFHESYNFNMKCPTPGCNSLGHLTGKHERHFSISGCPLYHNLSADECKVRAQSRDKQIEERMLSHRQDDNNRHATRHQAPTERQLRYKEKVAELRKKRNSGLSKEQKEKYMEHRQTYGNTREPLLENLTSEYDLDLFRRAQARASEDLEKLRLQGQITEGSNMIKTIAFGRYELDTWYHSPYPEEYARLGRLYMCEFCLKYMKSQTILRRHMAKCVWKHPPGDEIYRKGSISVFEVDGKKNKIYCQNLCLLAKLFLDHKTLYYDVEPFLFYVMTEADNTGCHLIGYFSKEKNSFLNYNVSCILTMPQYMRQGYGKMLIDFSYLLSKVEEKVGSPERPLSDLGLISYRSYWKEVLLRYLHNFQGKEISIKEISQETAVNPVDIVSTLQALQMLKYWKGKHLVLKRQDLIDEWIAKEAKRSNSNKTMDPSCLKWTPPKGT
UniProt Q9UK76: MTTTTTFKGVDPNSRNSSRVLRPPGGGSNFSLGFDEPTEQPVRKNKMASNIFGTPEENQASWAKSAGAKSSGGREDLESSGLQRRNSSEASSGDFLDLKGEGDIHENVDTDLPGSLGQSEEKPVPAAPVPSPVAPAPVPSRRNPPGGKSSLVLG
UniProt Q14653: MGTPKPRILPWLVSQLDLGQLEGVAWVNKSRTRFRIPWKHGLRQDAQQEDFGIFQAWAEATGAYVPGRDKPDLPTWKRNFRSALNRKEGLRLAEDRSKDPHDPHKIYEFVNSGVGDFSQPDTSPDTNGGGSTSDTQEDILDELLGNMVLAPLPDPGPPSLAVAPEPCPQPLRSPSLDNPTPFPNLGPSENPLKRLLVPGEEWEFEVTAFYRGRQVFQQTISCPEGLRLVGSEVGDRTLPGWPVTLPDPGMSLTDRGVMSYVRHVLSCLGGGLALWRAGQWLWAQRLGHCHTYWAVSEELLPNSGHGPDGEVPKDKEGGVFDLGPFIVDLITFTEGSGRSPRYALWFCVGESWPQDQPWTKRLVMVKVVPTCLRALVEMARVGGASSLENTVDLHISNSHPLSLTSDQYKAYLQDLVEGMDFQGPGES
UniProt Q9H910: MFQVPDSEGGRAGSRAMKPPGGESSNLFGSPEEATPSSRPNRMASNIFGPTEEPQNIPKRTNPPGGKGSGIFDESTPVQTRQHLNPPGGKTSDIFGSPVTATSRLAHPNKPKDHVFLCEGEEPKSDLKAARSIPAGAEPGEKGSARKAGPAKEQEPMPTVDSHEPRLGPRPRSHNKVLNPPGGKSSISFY
UniProt Q8NC54: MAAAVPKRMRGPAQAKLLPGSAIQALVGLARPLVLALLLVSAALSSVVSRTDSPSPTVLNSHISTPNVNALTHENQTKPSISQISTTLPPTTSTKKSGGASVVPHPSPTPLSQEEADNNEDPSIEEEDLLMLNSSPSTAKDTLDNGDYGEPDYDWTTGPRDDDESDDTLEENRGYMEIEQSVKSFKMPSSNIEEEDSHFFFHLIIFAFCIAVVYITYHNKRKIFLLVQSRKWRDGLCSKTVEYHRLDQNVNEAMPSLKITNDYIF
UniProt P17535: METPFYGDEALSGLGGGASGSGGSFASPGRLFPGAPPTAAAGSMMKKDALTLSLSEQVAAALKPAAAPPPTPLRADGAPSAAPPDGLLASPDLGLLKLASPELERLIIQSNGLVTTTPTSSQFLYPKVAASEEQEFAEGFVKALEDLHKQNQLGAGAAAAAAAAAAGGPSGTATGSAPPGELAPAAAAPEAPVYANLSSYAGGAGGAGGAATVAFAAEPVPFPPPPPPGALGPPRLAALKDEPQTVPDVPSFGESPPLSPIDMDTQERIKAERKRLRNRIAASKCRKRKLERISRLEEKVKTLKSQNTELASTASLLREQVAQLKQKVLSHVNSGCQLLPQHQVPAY
UniProt Q9ULR0: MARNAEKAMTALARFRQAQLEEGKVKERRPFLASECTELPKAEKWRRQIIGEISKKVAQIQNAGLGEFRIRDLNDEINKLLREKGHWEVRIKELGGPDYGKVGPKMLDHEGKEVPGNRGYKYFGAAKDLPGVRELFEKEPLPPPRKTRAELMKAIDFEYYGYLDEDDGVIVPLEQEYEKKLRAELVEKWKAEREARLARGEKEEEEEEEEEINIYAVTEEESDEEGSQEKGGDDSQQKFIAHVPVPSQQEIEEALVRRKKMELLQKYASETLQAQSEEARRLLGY

Compound: CN1CCc2c(c3ccccc3n2Cc2ccc(C(=O)NO)cc2)C1 [Tubastatin A]
Experiment: log2 fold change, soluble protein after heating vs DMSO (PISA); higher = thermal stabilisation; K562 lysate, 10 uM; active = over 0.2 and 3.5 SD of the protein, either way, in both replicates (recomputed)
Method in brief: (§1)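 Soluble protein was defined as the supernatant remaining after 21,000xg for 90 min, following pooling of heated aliquots and adjustment to 0.5% NP-40 at 4°C. Before that, crude K562 extract at 1 mg/mL protein in PBS pH 7.4 with 1 mM MgCl2 was treated with 10 μM compound for 30 min and heated for 3 min across 48°C-58°C. Quantification used TMTpro 16plex LC-MS/MS with channel sums equalised, and values are log-two fold changes in thermal stability relative to solvent controls from duplicates.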

log2 fold change, inactive:
ISOC2 (UniProt Q96AB3) -0.017, INTS5 (UniProt Q6P9B9) -0.055, ITPKA (UniProt P23677) -0.194, IPO11 isoform 2 (UniProt Q9UI26) -0.02, JAGN1 (UniProt Q8N5M9) 0.062, KDM1B (UniProt Q8NB78) 0.05, KDELR2 (UniProt P33947) -0.075, INTS9 (UniProt Q9NV88) 0.032, KCTD10 (UniProt Q9H3F6) -0.008, ISYNA1 (UniProt Q9NPH2) 0.032, ISCU (UniProt Q9H1K1) 0.04, IQGAP1 (UniProt P46940) -0.025, INTS14 (UniProt Q96SY0) -0.066, KDM1A (UniProt O60341) -0.067, KBTBD2 (UniProt Q8IY47) 0.167, IQSEC1 (UniProt Q6DN90) -0.032, IRAK1 (UniProt P51617) -0.038, ITGAV (UniProt P06756) 0.051, KCTD9 (UniProt Q7L273) 0.084, IRF2BPL (UniProt Q9H1B7) -0.047, IRF2BP1 (UniProt Q8IU81) -0.047, ISOC1 (UniProt Q96CN7) 0.074, KAT7 (UniProt O95251) -0.002, JPT1 (UniProt Q9UK76) 0.019, KCTD5 (UniProt Q9NXV2) -0.001, INTS7 (UniProt Q9NVH2) 0.008, IRF3 (UniProt Q14653) -0.006, ITPK1 (UniProt Q13572) -0.13, KAT8 (UniProt Q9H7Z6) -0.006, IPO5 isoform 3 (UniProt O00410) -0.001, ISCA1 isoform 2 (UniProt Q9BUE6) 0.023, JPT2 isoform 3 (UniProt Q9H910) 0.044, KCTD20 (UniProt Q7Z5Y7) -0.174, ITFG1 (UniProt Q8TB96) -0.009, KANSL3 (UniProt Q9P2N6) -0.149, KCT2 (UniProt Q8NC54) 0.029, JUND (UniProt P17535) -0.02, ISY1 isoform 1 (UniProt Q9ULR0) -0.03, ITGB1 (UniProt P05556) 0.053

Compound: CNC(=O)C1=CC=CC=C1NC2=NC(=NC=C2Cl)NC3=C(C=C(C=C3)N4CCOCC4)OC
Experiment: as above
Method in brief: as §1

log2 fold change, inactive:
ISOC2 (UniProt Q96AB3) 0.076, INTS5 (UniProt Q6P9B9) 0.027, ITPKA (UniProt P23677) -0.017, IPO11 isoform 2 (UniProt Q9UI26) 0.012, JAGN1 (UniProt Q8N5M9) 0.032, KDM1B (UniProt Q8NB78) 0.005, KDELR2 (UniProt P33947) -0.034, INTS9 (UniProt Q9NV88) 0.008, KCTD10 (UniProt Q9H3F6) -0.122, ISYNA1 (UniProt Q9NPH2) -0.019, ISCU (UniProt Q9H1K1) -0.021, IQGAP1 (UniProt P46940) -0.027, INTS14 (UniProt Q96SY0) 0.032, KDM1A (UniProt O60341) -0.023, KBTBD2 (UniProt Q8IY47) -0.009, IQSEC1 (UniProt Q6DN90) 0.07, IRAK1 (UniProt P51617) 0.314, ITGAV (UniProt P06756) 0.024, KCTD9 (UniProt Q7L273) 0.061, IRF2BPL (UniProt Q9H1B7) 0.01, IRF2BP1 (UniProt Q8IU81) 0.095, ISOC1 (UniProt Q96CN7) 0.02, KAT7 (UniProt O95251) -0.106, JPT1 (UniProt Q9UK76) 0.026, KCTD5 (UniProt Q9NXV2) 0.061, INTS7 (UniProt Q9NVH2) -0.025, IRF3 (UniProt Q14653) 0.019, ITPK1 (UniProt Q13572) -0.039, KAT8 (UniProt Q9H7Z6) -0.023, IPO5 isoform 3 (UniProt O00410) -0.021, ISCA1 isoform 2 (UniProt Q9BUE6) 0.037, JPT2 isoform 3 (UniProt Q9H910) -0.021, KCTD20 (UniProt Q7Z5Y7) 0.01, ITFG1 (UniProt Q8TB96) -0.009, KANSL3 (UniProt Q9P2N6) -0.028, KCT2 (UniProt Q8NC54) -0.001, JUND (UniProt P17535) 0.015, ISY1 isoform 1 (UniProt Q9ULR0) 0.013, ITGB1 (UniProt P05556) -0.017
